{"source": "patent US20100279942A1", "about": "“METHODS FOR TREATING MOTOR NEURON DISEASE” (priority 2004, published 2010)", "test_system": "F11 cells transformed with SOD1 mutant (A4T-SOD1, G85R-SOD1, G93R-SOD1) genes", "experiment": "Neuronal cell death test, Trypan blue exclusion assay, F11 cells transformed with SOD1 mutant genes", "type": "cell-based, rat/mouse hybrid cell", "details": "100 nM ADNF, 10 nM wortmannin, 100 μM genistein, 50 μM PD98059, 20 μM SB203580, 1 μM AG490, 5 μM KN93, 10 μM HA1004, 72 hours", "experimental": "F11 cell, the hybrid cell of rat embryonic day 13 (E13) primary cultured neuronal cell with mouse neuroblastoma NTG18 cell, was cultured in Ham's F-12 medium (Life Technologies, Gaithersburg, Md.) containing 18% FBS (Hyclone, Logan, Utah) and antibiotics as previously reported (Platika D, et al., 1985, Proc Natl Acad Sci USA 82: 3499-3503; Yamatsuji T, et al., 1996, Science 272: 1349-1352; Huang P, et al., 2000, Mol Hum Reprod 6: 1069-1078; and Niikura T, et al., 2001, J Neuroscience, 21: 1902-1910).\nThe F11 cells (7×10^4 cells/well, 6-well plate, 12- to 16-hour culture in Ham's F-12 (18% PBS) medium) were transformed with wild-type or SOD1 mutant (A4T, G85R, and G93R) genes by lipofection (0.5 μg of each SOD1 gene; 1 μl of LipofectAMINE; 2 μl of PLUS Reagent) under serum-free conditions for 3 hours and cultured for 2 hours in Ham's F-12 (18% PBS) medium. The medium was replaced by Ham's F-12 (10% PBS) in the presence or absence of ADNF. After 72 hours of the transformation, cell mortality was measured by Trypan blue exclusion assay as previously reported (Hashimoto Y, et al., 2001, J Neurosci 21: 9235-9245; and Hashimoto Y, et al, 2001, Proc Natl Acad Sci USA 98: 6336-6341). […]\nIntracellular signaling by ADNF was examined. […] After 72 hours of the transformation, cell mortality was measured by Trypan blue exclusion assay. […]", "note": "For at least one compound, name, drawing or mass did not settle the structure."}
{"smiles": "COC[C@H]1OC(=O)c2coc3c2[C@@]1(C)C1=C(C3=O)[C@@H]2CCC(=O)[C@@]2(C)C[C@H]1OC(C)=O", "note": "[wortmannin]", "values": [{"measurement": "effect of kinase inhibitor on neuroprotective effect of ADNF", "value": "not affected"}]}
